# Changes are numbered by the printed parent chain. These are yes or no findings as the source states them, for the method shown. Binding seen in cells or lysates may run through a third protein. Some binding calls cover weakened binding; strength is not graded here. Where a sequence is shown, tags or fusion partners need not be part of it.
# B1: endogenous Arl8b (protein, UniProt Q9CQW2 1-186)
# chain: MLALISRLLDWFRSLFWKEEMELTLVGLQYSGKTTFVNVIASGQFSEDMIPTVGFNMRKVTKGNVTIKIWDIGGQPRFRSMWERYCRGVNAIVYMIDAADREKIEASRNELHNLLDKPQLQGIPVLVLGNKRDLPNALDEKQLIEKMNLSAIQDREICCYSISCKEKDNIDITLQWLIQHSKSRRS
# Assays:
# Assay in all cases: co-IP
# [1] = target: T1, Flag-tagged Unc93b1 (wild type) (UniProt Q8VCW4)
# T1 sequence: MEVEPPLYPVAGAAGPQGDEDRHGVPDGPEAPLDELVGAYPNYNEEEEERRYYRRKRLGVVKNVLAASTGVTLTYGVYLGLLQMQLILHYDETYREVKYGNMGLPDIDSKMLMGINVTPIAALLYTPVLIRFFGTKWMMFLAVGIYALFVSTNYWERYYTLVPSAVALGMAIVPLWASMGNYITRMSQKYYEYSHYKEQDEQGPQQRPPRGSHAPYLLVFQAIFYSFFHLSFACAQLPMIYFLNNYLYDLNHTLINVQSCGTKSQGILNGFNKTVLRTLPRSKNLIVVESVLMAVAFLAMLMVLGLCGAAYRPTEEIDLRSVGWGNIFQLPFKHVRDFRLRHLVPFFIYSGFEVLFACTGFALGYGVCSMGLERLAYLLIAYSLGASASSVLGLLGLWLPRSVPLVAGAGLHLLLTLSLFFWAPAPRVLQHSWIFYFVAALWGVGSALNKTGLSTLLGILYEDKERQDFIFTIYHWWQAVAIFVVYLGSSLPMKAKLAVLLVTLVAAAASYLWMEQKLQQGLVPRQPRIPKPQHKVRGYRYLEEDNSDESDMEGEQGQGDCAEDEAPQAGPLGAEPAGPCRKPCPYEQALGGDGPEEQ
# [2] = target: T2, HA-tagged TLR3 (UniProt Q99MB1)
# T2 sequence: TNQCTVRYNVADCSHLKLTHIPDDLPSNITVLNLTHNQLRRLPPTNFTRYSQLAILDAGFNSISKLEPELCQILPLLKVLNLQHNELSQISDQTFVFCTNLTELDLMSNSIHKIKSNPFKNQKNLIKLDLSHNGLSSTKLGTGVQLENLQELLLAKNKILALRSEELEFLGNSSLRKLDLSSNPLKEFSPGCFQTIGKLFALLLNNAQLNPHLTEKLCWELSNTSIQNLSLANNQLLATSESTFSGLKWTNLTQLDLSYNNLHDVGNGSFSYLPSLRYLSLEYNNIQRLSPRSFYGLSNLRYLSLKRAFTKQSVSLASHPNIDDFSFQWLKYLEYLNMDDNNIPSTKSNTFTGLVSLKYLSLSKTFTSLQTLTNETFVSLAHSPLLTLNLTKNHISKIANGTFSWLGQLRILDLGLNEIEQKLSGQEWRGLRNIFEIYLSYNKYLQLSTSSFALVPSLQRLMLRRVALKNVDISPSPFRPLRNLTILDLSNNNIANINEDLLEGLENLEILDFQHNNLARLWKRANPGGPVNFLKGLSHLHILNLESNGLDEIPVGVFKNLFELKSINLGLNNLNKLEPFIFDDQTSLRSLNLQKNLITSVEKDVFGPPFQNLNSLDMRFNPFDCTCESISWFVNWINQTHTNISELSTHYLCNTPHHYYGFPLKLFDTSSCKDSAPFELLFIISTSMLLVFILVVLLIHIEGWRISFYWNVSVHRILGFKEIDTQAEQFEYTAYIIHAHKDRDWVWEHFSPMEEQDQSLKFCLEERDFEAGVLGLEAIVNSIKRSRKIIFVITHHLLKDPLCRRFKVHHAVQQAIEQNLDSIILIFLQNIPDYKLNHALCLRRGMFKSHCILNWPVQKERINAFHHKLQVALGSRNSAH
# [3] = target: T3, HA-tagged TLR9 (UniProt Q9EQU3)
# T3 sequence: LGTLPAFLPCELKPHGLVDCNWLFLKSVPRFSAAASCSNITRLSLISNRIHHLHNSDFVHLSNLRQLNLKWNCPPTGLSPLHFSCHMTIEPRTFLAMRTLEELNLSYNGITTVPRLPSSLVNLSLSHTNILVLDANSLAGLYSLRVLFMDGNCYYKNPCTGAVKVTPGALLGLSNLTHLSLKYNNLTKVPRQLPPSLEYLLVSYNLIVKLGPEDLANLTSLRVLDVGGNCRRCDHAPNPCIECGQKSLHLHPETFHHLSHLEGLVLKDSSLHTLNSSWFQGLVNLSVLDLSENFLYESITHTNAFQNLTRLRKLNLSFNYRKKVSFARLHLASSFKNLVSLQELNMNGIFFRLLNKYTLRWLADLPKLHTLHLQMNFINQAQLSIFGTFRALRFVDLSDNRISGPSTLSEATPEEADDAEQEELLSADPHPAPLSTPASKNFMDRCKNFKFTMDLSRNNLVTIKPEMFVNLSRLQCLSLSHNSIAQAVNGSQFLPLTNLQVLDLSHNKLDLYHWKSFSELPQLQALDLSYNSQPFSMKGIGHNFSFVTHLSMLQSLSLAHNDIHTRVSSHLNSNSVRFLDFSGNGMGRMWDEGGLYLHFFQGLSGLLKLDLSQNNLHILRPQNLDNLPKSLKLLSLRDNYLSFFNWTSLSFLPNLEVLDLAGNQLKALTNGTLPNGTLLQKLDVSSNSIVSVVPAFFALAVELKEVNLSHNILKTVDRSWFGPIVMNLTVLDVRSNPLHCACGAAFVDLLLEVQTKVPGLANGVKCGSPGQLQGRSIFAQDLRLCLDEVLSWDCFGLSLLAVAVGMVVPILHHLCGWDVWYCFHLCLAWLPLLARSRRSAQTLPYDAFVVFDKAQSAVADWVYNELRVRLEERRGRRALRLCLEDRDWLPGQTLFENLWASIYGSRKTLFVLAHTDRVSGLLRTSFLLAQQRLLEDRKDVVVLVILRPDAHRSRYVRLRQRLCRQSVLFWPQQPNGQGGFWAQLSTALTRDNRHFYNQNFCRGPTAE
# [4] = target: T4, Flag-tagged Unc93b1 H412R (UniProt Q8VCW4)
# T4 sequence: T1 sequence with H412R
binder,measurement,setting,value
B1,binding,[1],binds
same,binding,[2],no binding
same,binding,[3],no binding
same,binding,[4],no binding

# Reference: article doi:10.1101/2023.04.03.535356
